In the assay the target is T1, MBP-S1A4 (Oryza glaberrima).
T1 sequence: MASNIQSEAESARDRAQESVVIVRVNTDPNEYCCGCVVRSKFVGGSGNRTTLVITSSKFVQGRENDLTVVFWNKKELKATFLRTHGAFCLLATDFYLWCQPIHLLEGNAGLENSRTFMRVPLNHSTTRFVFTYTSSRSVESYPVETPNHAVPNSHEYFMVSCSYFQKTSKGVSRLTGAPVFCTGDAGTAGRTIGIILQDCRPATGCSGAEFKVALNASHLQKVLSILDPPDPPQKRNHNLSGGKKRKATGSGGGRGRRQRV
Description: pull-down; MBP-S1A4 from E. coli lysate held on amylose resin as bait, mixed with E. coli lysates containing GST-S1A6 or GST-S1TPR; PBS pH 7.4; western blot with anti-MBP and anti-GST; only the target purified. For orientation: In western blotting, separated proteins are transferred to a membrane and probed.

Results are given in words; binding and its absence hold for the method and conditions named. Binding seen in cells or lysates may run through a third protein. A result given as binding can be weak or reduced; the word gives no strength. Tags and fused reporters may be left off the sequences shown.

From publication PMC6555797 come the findings set out here.

Regarding GST-S1A6 (Oryza glaberrima), the binding entry was “binds”. For GST-S1TPR (Oryza glaberrima), the binding entry is reported as “binds”.
